# Measurements taken from the supplement of paper PMC10849652.
# Sequences of proteins named here, by UniProt entry; tags and fusion partners are left off. A change or cut given only in a name is not applied to a line headed by its entry.
# UniProt Q93075: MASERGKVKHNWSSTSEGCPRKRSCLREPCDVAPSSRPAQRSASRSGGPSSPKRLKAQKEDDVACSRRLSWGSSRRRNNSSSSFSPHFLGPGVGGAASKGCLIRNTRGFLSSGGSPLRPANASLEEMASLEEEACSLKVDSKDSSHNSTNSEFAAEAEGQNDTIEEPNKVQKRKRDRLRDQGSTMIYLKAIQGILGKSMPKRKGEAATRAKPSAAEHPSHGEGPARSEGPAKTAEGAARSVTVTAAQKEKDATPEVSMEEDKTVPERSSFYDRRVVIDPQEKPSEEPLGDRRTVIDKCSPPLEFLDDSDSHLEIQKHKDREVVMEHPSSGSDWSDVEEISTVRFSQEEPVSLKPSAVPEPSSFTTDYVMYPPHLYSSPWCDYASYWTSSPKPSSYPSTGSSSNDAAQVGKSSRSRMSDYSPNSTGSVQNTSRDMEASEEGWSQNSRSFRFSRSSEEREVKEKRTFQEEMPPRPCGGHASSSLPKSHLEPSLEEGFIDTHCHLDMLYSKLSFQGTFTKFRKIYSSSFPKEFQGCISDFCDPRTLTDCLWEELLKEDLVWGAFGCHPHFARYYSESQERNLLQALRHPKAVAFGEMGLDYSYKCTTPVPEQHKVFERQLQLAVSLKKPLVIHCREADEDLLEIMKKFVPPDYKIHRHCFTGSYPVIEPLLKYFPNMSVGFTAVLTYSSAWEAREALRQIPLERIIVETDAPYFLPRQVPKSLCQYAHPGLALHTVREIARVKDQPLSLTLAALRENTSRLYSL
# UniProt Q9UI15: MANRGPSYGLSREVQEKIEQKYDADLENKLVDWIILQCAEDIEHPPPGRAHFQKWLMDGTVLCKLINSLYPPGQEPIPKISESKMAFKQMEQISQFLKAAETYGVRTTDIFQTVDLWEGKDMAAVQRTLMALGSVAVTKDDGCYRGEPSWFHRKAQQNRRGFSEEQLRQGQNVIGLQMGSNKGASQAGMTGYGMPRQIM
# UniProt Q01995: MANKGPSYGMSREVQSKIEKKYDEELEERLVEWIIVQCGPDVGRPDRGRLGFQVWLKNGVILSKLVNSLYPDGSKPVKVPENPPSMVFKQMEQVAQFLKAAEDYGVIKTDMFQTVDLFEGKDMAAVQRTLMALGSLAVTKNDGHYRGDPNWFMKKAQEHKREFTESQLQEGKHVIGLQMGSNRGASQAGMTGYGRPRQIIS
# UniProt P08247, whole entry, looked up: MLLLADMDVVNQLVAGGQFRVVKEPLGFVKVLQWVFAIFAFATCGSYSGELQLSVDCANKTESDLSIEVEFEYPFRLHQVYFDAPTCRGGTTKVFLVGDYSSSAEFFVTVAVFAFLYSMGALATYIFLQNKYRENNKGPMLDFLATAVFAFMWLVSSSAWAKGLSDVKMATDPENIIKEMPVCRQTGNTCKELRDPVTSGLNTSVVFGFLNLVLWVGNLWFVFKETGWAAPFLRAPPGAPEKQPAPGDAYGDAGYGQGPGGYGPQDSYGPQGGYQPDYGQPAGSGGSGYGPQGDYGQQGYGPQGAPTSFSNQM
# UniProt O94864: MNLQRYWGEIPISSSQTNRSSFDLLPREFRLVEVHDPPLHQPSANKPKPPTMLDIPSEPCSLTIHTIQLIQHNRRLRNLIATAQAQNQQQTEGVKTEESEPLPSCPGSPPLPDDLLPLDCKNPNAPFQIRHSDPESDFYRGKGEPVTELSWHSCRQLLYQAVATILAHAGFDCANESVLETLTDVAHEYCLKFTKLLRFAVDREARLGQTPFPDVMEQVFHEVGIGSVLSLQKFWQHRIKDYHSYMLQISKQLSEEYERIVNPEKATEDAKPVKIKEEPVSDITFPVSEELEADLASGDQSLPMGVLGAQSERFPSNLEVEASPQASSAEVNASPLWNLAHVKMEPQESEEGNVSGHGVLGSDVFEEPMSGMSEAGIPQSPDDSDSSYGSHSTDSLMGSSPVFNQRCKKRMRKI
# UniProt Q9NRP7: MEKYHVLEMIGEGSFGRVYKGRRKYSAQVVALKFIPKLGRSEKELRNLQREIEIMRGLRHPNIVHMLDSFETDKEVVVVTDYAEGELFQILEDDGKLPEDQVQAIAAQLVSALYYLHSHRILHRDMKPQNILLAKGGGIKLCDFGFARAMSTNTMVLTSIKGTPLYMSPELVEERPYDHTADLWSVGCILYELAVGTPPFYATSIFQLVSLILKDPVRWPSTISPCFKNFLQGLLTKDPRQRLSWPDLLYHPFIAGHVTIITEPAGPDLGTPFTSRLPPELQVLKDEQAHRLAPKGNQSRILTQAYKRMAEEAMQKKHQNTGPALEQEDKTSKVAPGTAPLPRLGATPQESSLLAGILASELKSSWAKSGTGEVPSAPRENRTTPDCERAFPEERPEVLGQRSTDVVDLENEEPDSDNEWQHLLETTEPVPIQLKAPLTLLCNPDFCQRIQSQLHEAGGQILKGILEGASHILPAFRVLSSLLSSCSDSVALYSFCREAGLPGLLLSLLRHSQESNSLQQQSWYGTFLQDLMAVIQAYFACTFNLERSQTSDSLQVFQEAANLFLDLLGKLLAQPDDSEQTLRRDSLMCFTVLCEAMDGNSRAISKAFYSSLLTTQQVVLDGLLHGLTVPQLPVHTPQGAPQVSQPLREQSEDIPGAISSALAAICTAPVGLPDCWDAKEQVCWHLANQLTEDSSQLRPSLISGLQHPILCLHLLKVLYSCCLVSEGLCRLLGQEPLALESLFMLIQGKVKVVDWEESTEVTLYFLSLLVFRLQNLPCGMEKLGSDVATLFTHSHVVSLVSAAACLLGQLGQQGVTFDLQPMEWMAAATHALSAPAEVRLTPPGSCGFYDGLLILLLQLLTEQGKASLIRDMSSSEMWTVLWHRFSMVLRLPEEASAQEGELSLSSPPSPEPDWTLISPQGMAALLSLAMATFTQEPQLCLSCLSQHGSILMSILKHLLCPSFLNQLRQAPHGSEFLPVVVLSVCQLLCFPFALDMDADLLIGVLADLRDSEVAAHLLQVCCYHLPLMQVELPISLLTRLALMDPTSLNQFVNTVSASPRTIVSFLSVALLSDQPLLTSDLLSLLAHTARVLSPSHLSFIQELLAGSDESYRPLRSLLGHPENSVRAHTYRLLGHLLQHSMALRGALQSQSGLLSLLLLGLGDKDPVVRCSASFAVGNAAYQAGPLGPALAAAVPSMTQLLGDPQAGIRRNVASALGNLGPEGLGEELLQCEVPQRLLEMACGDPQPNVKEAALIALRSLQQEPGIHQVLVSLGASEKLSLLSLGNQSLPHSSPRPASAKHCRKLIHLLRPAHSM
# UniProt Q15542, whole entry, looked up: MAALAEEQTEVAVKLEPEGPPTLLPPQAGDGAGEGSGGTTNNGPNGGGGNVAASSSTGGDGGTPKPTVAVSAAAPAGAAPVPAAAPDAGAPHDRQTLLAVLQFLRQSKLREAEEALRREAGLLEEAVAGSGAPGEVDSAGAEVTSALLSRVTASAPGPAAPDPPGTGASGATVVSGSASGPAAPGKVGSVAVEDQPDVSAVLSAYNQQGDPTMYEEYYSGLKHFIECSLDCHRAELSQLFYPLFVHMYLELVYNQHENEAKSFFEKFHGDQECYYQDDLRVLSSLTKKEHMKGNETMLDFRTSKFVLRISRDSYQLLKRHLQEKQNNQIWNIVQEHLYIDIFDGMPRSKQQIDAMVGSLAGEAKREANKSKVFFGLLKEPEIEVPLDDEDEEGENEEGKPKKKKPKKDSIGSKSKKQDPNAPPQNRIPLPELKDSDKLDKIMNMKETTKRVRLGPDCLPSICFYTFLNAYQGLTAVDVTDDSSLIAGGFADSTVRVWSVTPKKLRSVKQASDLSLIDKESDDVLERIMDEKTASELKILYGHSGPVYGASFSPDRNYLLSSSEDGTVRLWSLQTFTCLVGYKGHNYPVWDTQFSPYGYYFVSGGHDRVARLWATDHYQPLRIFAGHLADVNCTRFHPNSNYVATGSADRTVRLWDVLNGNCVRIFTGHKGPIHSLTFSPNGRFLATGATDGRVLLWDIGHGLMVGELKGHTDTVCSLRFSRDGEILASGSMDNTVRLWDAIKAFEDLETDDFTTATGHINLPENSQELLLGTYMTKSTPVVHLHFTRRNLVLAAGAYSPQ
# UniProt Q9UK61: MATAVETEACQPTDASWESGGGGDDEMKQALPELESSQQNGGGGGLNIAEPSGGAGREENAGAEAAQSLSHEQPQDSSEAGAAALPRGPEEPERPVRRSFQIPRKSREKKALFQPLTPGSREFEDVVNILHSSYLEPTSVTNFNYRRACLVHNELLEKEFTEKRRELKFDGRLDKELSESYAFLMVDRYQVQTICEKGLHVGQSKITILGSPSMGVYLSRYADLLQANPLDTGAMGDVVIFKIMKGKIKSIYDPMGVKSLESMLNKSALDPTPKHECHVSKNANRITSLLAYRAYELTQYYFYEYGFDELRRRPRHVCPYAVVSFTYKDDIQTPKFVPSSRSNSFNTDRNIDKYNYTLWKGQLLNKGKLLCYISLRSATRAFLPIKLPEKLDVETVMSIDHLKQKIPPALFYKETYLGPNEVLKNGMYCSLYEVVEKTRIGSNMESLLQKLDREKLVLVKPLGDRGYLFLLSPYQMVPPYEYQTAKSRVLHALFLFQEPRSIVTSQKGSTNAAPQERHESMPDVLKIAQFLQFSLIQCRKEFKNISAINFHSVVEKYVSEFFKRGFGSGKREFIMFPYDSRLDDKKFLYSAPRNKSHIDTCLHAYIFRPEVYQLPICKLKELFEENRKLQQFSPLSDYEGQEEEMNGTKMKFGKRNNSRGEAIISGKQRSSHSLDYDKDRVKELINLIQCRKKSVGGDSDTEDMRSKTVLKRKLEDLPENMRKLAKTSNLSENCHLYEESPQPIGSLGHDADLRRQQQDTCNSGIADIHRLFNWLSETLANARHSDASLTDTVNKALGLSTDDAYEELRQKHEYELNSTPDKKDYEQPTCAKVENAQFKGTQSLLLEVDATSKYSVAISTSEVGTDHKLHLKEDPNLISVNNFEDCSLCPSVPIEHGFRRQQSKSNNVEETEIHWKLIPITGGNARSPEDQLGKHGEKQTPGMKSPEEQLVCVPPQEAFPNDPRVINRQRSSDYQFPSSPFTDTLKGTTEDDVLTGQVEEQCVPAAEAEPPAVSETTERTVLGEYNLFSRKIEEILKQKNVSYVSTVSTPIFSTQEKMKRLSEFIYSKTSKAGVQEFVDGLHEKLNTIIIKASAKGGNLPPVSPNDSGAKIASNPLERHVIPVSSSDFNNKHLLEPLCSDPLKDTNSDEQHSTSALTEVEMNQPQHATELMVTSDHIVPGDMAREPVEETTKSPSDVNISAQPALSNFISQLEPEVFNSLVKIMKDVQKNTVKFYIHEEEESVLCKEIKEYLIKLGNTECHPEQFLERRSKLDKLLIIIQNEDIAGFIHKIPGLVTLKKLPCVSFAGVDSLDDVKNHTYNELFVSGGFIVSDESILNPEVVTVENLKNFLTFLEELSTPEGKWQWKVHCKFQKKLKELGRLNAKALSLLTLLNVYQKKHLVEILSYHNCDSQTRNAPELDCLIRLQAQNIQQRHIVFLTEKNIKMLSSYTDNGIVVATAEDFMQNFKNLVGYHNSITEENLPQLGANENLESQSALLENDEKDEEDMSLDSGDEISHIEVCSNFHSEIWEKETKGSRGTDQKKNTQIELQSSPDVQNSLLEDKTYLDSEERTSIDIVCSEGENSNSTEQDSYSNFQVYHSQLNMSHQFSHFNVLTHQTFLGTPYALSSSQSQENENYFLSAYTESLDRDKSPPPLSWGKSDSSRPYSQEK
# UniProt Q9Y2Z0: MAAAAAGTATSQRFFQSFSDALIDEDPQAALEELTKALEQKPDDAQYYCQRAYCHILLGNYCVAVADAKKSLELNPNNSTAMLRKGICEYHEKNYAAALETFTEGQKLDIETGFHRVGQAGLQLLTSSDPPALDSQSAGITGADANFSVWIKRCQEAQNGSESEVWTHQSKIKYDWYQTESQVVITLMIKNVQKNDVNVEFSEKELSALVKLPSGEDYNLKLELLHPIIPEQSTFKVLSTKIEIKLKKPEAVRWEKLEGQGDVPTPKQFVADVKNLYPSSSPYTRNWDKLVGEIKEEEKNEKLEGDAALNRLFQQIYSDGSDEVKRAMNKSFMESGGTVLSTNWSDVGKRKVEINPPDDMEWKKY
# UniProt O75486: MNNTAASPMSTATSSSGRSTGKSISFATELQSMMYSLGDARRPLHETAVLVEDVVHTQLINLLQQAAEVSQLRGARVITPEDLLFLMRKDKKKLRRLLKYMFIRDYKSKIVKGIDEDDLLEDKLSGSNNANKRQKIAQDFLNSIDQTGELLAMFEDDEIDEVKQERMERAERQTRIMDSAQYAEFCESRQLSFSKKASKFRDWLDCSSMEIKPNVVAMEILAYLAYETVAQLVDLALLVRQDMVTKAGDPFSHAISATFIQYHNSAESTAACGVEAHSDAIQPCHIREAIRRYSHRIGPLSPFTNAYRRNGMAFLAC
# UniProt Q8N2H4: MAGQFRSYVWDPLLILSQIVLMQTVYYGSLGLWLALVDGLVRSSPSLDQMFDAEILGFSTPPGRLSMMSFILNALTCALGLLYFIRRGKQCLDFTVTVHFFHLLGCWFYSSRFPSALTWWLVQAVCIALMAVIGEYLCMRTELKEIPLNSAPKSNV
# This is one part of the list.
# Compound: CC1=C(C=C(C=C1)NC(=O)C2=CC(=CC=C2)C(C)(C)C#N)NC3=CC4=C(C=C3)N=CN(C4=O)C
# Assay: log2 fold change, soluble protein after heating vs DMSO (PISA); higher = thermal stabilisation; K562 cells, 10 uM, 30 min; active = over 0.2 and 3.5 SD of the protein, either way, in both replicates (recomputed)
# In short: (§1)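 Values are thermal stability changes relative to control samples and are taken from duplicates. They are stated as log2 fold changes. Before quantification by TMTpro 16plex LC-MS/MS with equalised channel sums, K562 cells at 2×10^6 cells/mL were treated with 10 μM compound for 30 min, heated in aliquots for 3 min across 48°C-58°C, pooled, extracted in PBS with 0.5% NP-40 at 4°C, and centrifuged at 21,000xg for 90 min to give the soluble supernatant.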
row,Target,log2 fold change
1,STXBP5L (UniProt Q9Y2K9),inactive: 0.136
2,SUGP2 (UniProt Q8IX01),inactive: -0.27
3,TATDN2 (UniProt Q93075),inactive: -0.256
4,SYTL4 (UniProt Q96C24),inactive: -0.078
5,TAF12 (UniProt Q16514),inactive: -0.099
6,SWI5 (UniProt Q1ZZU3),inactive: -0.118
7,TAGLN3 (UniProt Q9UI15),inactive: -0.02
8,TAGLN (UniProt Q01995),inactive: -0.342

# Quoted at random: 2 entries already listed
row,Target,log2 fold change
2,SUGP2 (UniProt Q8IX01),inactive: -0.27
1,STXBP5L (UniProt Q9Y2K9),inactive: 0.136

# Compound: CC1=C(C=C(C=C1)NC(=O)C2=CC(=CC=C2)N(C)C)NC(=O)C3=CC=C(C=C3)O
# Assay: as above
# In short: as §1
row,Target,log2 fold change
1,SYP (UniProt P08247),inactive: 0.025
2,SUPT7L (UniProt O94864),inactive: -0.101
3,STK36 (UniProt Q9NRP7),inactive: -0.027
4,TBC1D10A (UniProt Q9BXI6),inactive: -0.05
5,TAF5 (UniProt Q15542),inactive: -0.048
6,TACC3 (UniProt C9JWI7),inactive: 0.023
7,TASOR (UniProt Q9UK61),inactive: 0.087
8,SUZ12 (UniProt Q15022),inactive: 0.021
9,TAZ (UniProt Q16635),inactive: 0.031
10,SYK (UniProt P43405),inactive: 0.015
11,STOML1 (UniProt Q9UBI4),inactive: 0.163
12,STYX (UniProt Q8WUJ0),inactive: -0.232
13,SUGT1 isoform 2 (UniProt Q9Y2Z0),inactive: -0.019
14,SUPT3H isoform 4 (UniProt O75486),inactive: -0.247
15,SYS1 (UniProt Q8N2H4),inactive: 0.16
